{"source": "PubChem BioAssay AID1259405 – NCATS, 2018", "test": "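Silenced genes that increase secreted GFP made by CHO cells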 (primary screen)", "system": "Chinese hamster CHO-K1 ovary cells with stable secreted eGFP expression", "reagents": "single siRNA against mouse genes, 0.8 pmol siRNA per well (2 µl of 400 nM stock)", "duration": "3 days", "measurement": "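Percent of the per-plate non-targeting control median for intracellular GFP per well by laser scanning cytometry and for cell viability by ATP luminescence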", "reading the numbers": "GFP, % of control: higher = more GFP per well, higher productivity; viability (ATP), % of control: higher = more viable cells (more ATP)", "hit rule": "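a knock-down is called active if GFP reaches 120% or more of non-targeting control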", "note": "This is a random part of about 50,000 deposited reagents. About 4,000 of all reagents (8%) count as active. 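Mouse siRNA library applied to hamster cells; one well for each siRNA.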 The numbers tell different reagents against one gene apart. Reagent sequences are not shown."}
{"target": "Taf6l (TATA-box binding protein associated factor 6 like)", "reagent no.": 1, "GFP, % of control": 61.2, "viability (ATP), % of control": 77.2, "Outcome": "inactive"}
{"target": "Taf6l (TATA-box binding protein associated factor 6 like)", "reagent no.": 2, "GFP, % of control": 65, "viability (ATP), % of control": 46.1, "Outcome": "inactive"}
{"target": "Taf6l (TATA-box binding protein associated factor 6 like)", "reagent no.": 3, "GFP, % of control": 79, "viability (ATP), % of control": 90.4, "Outcome": "inactive"}
{"target": "Mphosph10", "reagent no.": 1, "GFP, % of control": 69.3, "viability (ATP), % of control": 60.4, "Outcome": "inactive"}
{"target": "Mphosph10", "reagent no.": 2, "GFP, % of control": 101, "viability (ATP), % of control": 82.8, "Outcome": "inactive"}
{"target": "Mphosph10", "reagent no.": 3, "GFP, % of control": 32, "viability (ATP), % of control": 15.2, "Outcome": "inactive"}
{"target": "Naa50 (N(alpha)-acetyltransferase 50, NatE catalytic subunit)", "reagent no.": 1, "GFP, % of control": 32.1, "viability (ATP), % of control": 75, "Outcome": "inactive"}
{"target": "Naa50 (N(alpha)-acetyltransferase 50, NatE catalytic subunit)", "reagent no.": 2, "GFP, % of control": 86.1, "viability (ATP), % of control": 98.4, "Outcome": "inactive"}
{"target": "Naa50 (N(alpha)-acetyltransferase 50, NatE catalytic subunit)", "reagent no.": 3, "GFP, % of control": 46, "viability (ATP), % of control": 64, "Outcome": "inactive"}
{"target": "Mmp17 (matrix metallopeptidase 17)", "reagent no.": 1, "GFP, % of control": 90.5, "viability (ATP), % of control": 103, "Outcome": "inactive"}
{"target": "Mmp17 (matrix metallopeptidase 17)", "reagent no.": 2, "GFP, % of control": 93.9, "viability (ATP), % of control": 63.6, "Outcome": "inactive"}
{"target": "Cep250 (centrosomal protein 250)", "reagent no.": 1, "GFP, % of control": 86.7, "viability (ATP), % of control": 81.8, "Outcome": "inactive"}
{"target": "Cep250 (centrosomal protein 250)", "reagent no.": 2, "GFP, % of control": 109, "viability (ATP), % of control": 85.7, "Outcome": "inactive"}
{"target": "Cep250 (centrosomal protein 250)", "reagent no.": 3, "GFP, % of control": 113, "viability (ATP), % of control": 104, "Outcome": "inactive"}
{"target": "Kctd19 (potassium channel tetramerisation domain containing 19)", "reagent no.": 1, "GFP, % of control": 69.8, "viability (ATP), % of control": 58.1, "Outcome": "inactive"}
{"target": "Kctd19 (potassium channel tetramerisation domain containing 19)", "reagent no.": 2, "GFP, % of control": 110, "viability (ATP), % of control": 101, "Outcome": "inactive"}
{"target": "Kctd19 (potassium channel tetramerisation domain containing 19)", "reagent no.": 3, "GFP, % of control": 95.1, "viability (ATP), % of control": 70.3, "Outcome": "inactive"}
{"target": "Ppp2r3c (protein phosphatase 2, regulatory subunit B'', gamma)", "reagent no.": 1, "GFP, % of control": 112, "viability (ATP), % of control": 97, "Outcome": "inactive"}
{"target": "Ppp2r3c (protein phosphatase 2, regulatory subunit B'', gamma)", "reagent no.": 2, "GFP, % of control": 65.1, "viability (ATP), % of control": 62.8, "Outcome": "inactive"}
{"target": "Ppp2r3c (protein phosphatase 2, regulatory subunit B'', gamma)", "reagent no.": 3, "GFP, % of control": 82, "viability (ATP), % of control": 125, "Outcome": "inactive"}
{"target": "Crybg1 (crystallin beta-gamma domain containing 1)", "reagent no.": 1, "GFP, % of control": 67.7, "viability (ATP), % of control": 67.2, "Outcome": "inactive"}
{"target": "Crybg1 (crystallin beta-gamma domain containing 1)", "reagent no.": 2, "GFP, % of control": 64.1, "viability (ATP), % of control": 84.8, "Outcome": "inactive"}
{"target": "Crybg1 (crystallin beta-gamma domain containing 1)", "reagent no.": 3, "GFP, % of control": 95.3, "viability (ATP), % of control": 101, "Outcome": "inactive"}
{"target": "9930012K11Rik (RIKEN cDNA 9930012K11 gene)", "reagent no.": 1, "GFP, % of control": 124, "viability (ATP), % of control": 77.2, "Outcome": "active"}
{"target": "9930012K11Rik (RIKEN cDNA 9930012K11 gene)", "reagent no.": 2, "GFP, % of control": 82.5, "viability (ATP), % of control": 66.5, "Outcome": "inactive"}
{"target": "9930012K11Rik (RIKEN cDNA 9930012K11 gene)", "reagent no.": 3, "GFP, % of control": 107, "viability (ATP), % of control": 72, "Outcome": "inactive"}
{"target": "Or1e1 (olfactory receptor family 1 subfamily E member 1)", "reagent no.": 1, "GFP, % of control": 71.8, "viability (ATP), % of control": 63.8, "Outcome": "inactive"}
{"target": "Or1e1 (olfactory receptor family 1 subfamily E member 1)", "reagent no.": 2, "GFP, % of control": 93.9, "viability (ATP), % of control": 77, "Outcome": "inactive"}
{"target": "Or1e1 (olfactory receptor family 1 subfamily E member 1)", "reagent no.": 3, "GFP, % of control": 77.5, "viability (ATP), % of control": 41.7, "Outcome": "inactive"}
{"target": "Krt222 (keratin 222)", "reagent no.": 1, "GFP, % of control": 72.8, "viability (ATP), % of control": 66.5, "Outcome": "inactive"}
{"target": "Krt222 (keratin 222)", "reagent no.": 2, "GFP, % of control": 54.9, "viability (ATP), % of control": 65.7, "Outcome": "inactive"}
{"target": "Krt222 (keratin 222)", "reagent no.": 3, "GFP, % of control": 79.7, "viability (ATP), % of control": 60.8, "Outcome": "inactive"}
{"target": "Plekhg2 (pleckstrin homology and RhoGEF domain containing G2)", "reagent no.": 1, "GFP, % of control": 60.8, "viability (ATP), % of control": 53.1, "Outcome": "inactive"}
{"target": "Plekhg2 (pleckstrin homology and RhoGEF domain containing G2)", "reagent no.": 2, "GFP, % of control": 74.7, "viability (ATP), % of control": 87.7, "Outcome": "inactive"}
{"target": "Plekhg2 (pleckstrin homology and RhoGEF domain containing G2)", "reagent no.": 3, "GFP, % of control": 42.4, "viability (ATP), % of control": 74.7, "Outcome": "inactive"}
{"target": "Izumo1r (IZUMO1 receptor, JUNO)", "reagent no.": 1, "GFP, % of control": 109, "viability (ATP), % of control": 113, "Outcome": "inactive"}
{"target": "Izumo1r (IZUMO1 receptor, JUNO)", "reagent no.": 2, "GFP, % of control": 62.2, "viability (ATP), % of control": 92.3, "Outcome": "inactive"}
{"target": "Izumo1r (IZUMO1 receptor, JUNO)", "reagent no.": 3, "GFP, % of control": 167, "viability (ATP), % of control": 35.4, "Outcome": "active"}
{"target": "Or51b4 (olfactory receptor family 51 subfamily B member 4)", "reagent no.": 1, "GFP, % of control": 45.9, "viability (ATP), % of control": 56.6, "Outcome": "inactive"}
{"target": "Or51b4 (olfactory receptor family 51 subfamily B member 4)", "reagent no.": 2, "GFP, % of control": 63.2, "viability (ATP), % of control": 53.1, "Outcome": "inactive"}
{"target": "Or51b4 (olfactory receptor family 51 subfamily B member 4)", "reagent no.": 3, "GFP, % of control": 66.1, "viability (ATP), % of control": 80.3, "Outcome": "inactive"}

A portion of the results above, as a working copy:
{"target": "Crybg1 (crystallin beta-gamma domain containing 1)", "reagent no.": 1, "GFP, % of control": 67.7, "viability (ATP), % of control": 67.2, "Outcome": "inactive"}
{"target": "Crybg1 (crystallin beta-gamma domain containing 1)", "reagent no.": 2, "GFP, % of control": 64.1, "viability (ATP), % of control": 84.8, "Outcome": "inactive"}
